From PubChem BioAssay AID493014 (National Center for Advancing Translational Sciences (NCATS), 2011)
In all, about 340,000 compounds went through this assay and about 170 (0.05%) were called active. The inconclusive results got no clear call from the source; some entries with a clear call stand among them for comparison. Calls come from the whole dose curve; as a rule, active = well fitted inhibition curve with a large enough effect in the signal ratio, with a control signal flat (not every such curve was filed as active); inconclusive = small, poorly fitted or top-dose-only effect, or effect the other way, or a change in a side signal; inactive = flat fitted curve, though single readings scatter; the % refers to the signal ratio. A potency beside an inconclusive call is a rough fit, not a confirmed value.
Potency is the fitted concentration of half-maximal effect.

Experiment: qHTS Assay to Find Inhibitors of Chronic Active B-Cell Receptor Signaling;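 for activity change, negative = inhibition: plate controls were basal doxycycline-induced cells for no effect and cells given 10 µM MG132 for full effect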
Details: ABC-DLBCL IkBa-CBG/CBR reporter, luminescence ratio (green luciferase fused to IkBa over red control in TMD8 lymphoma cells), 4 h; activity change, negative = inhibition: at 46.1 µM (top of the series) unless noted
Method in brief: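 TMD8 ABC-DLBCL cells carrying doxycycline-inducible green luciferase fused to IkappaBalpha plus unfused red luciferase were exposed to compounds (up to 46 uM) for 4 hrs at 37C. Activity came from the overlap-corrected green/red luminescence ratio.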
In the case of `O=C(O)CSc1cc(C(F)(F)F)nc(-c2ccccn2)n1`, the activity change, negative = inhibition is reported as inconclusive: -0.928%. With `Cn1ncc2c(Nc3ccc(-c4ccccc4)cc3)ncnc21` the activity change, negative = inhibition was inconclusive: -16.1%. With `COCCNC(=O)Cn1cc(/C=N/NC(=O)c2ccc(Oc3ccc(O)cc3)cc2)c2ccccc21` the Potency was inconclusive: 25.1 µM [falling, partial curve, poor fit]. With `CCN1CCN(c2cc(-c3ccccc3)nc3cc(-c4cccc(F)c4)nn23)CC1` the activity change, negative = inhibition was inconclusive: -6.2%. In the case of `Cc1cc(-c2ccccc2)nc(N/N=C/c2ccc(O)cc2)n1`, the Potency is reported as inconclusive: 2.31 µM [rising, full curve, poor fit]. With `COc1ccc(CNC(=O)C2CCCN(S(=O)(=O)c3ccc4c(c3)C(C)(C)C(=O)N4C)C2)cc1` (stereo not given) the “activity change, negative = inhibition” value was inactive: 0.0235%. With `N#Cc1ccccc1NC(=O)c1ccc(-c2ccccc2Cl)o1` the activity change, negative = inhibition was inconclusive: -6.23%. In the case of `Cc1ccc(OCc2cc(C(=O)NCc3cc(F)ccc3C)no2)cn1`, the “activity change, negative = inhibition” value is reported as inactive: 1.12%. For `CC(C)Cn1c(=O)[nH]c(=O)c2c(C(F)(F)F)cc(-c3ccccc3)nc21`, the activity change, negative = inhibition was inconclusive: -1.3%. With `CCC(=NCc1ccc(Cl)c(Cl)c1)c1nc(-c2ccco2)oc1O` the activity change, negative = inhibition was inconclusive: -0.548%. With `O=C(NCCc1ccccc1F)C(=O)Nc1nccs1` the activity change, negative = inhibition was inconclusive: -20.2%. In the case of `O=C(N/N=C/c1cc(Cl)cc([N+](=O)[O-])c1O)c1ccc2c(c1)OCO2`, the “activity change, negative = inhibition” value is reported as inactive: -20.4%. For `O=C(CN(C(=O)CSc1nc2ccccc2o1)c1cccc(F)c1)NC1CCCCC1`, the Potency was inconclusive: 35.5 µM [falling, single point]. In the case of `CCOc1ccccc1CNC(=O)CCn1ccc2cc(S(=O)(=O)N3CCCCC3)ccc21`, the activity change, negative = inhibition is reported as inconclusive: 6.12%. For `CN(C)S(=O)(=O)c1ccc(N2CCCC2)c(C(=O)NC(c2ccccc2)c2ccccc2)c1`, the activity change, negative = inhibition was inconclusive: -25.5%. For `Cc1ccc(C(=O)Nc2ccc(O)cc2C(=O)O)cc1C`, the Potency was inconclusive: 1.84 µM [rising, full curve, poor fit]. In the case of `Cc1cccc(NC(=O)c2cc3ccccc3oc2=O)c1`, the Potency is reported as inconclusive: 25.1 µM [falling, single point]. In the case of `Cc1c(Br)c([N+](=O)[O-])nn1CC(=O)NCc1ccco1`, the Potency is reported as inconclusive: 18.4 µM [falling, partial curve]. For `O=C(Nc1nc2ccccc2s1)C1CCN(C(=O)c2ccco2)CC1`, the activity change, negative = inhibition was inconclusive: 13.6%. With `CCN(CC)CCn1c(=N)n(CCOc2ccccc2)c2ccccc21` the Potency was inconclusive: 18.4 µM [falling, single point]. For `CCOC(=O)c1cc(-c2ccccc2)n(CCC(=O)Nc2nc3c(C)cccc3s2)c1C`, the activity change, negative = inhibition was inconclusive: 23.2%. For `O=C(N1CCCCCC1)N1CCN(S(=O)(=O)N2CCOCC2)CC1`, the activity change, negative = inhibition was inconclusive: 17.6%. In the case of `Cc1cccc(-n2c(=O)c(C#N)cc3c(=O)n4ccccc4nc32)c1`, the “activity change, negative = inhibition” value is reported as inactive: 6.4%. With `CC(C)NC(=O)NC(=O)COc1c(F)c(F)cc(F)c1F` the activity change, negative = inhibition was inconclusive: -12.5%. For `COCCCNC(=O)c1ccc(Cn2c(=O)c3ccccc3n(Cc3ccccc3C#N)c2=O)cc1`, the activity change, negative = inhibition was inconclusive: 9.78%. With `Nc1nnc(/C=C/c2cccc([N+](=O)[O-])c2)s1` the “activity change, negative = inhibition” value was inactive: 1.1%. In the case of `COC(=O)N/N=C/c1cn(CC(C)COc2ccccc2)c2ccccc12` (stereo not given), the activity change, negative = inhibition is reported as inconclusive: -2.16%. For `O=C(CC1SC(=O)N(c2ccccc2)C1=O)Nc1cccc2ccccc12` (stereo not given), the activity change, negative = inhibition was inconclusive: -15.3%. In the case of `CN(C(=O)CSc1nc(-c2ccc(C(C)(C)C)cc2)c(C#N)c(=O)[nH]1)C1CCCCC1`, the activity change, negative = inhibition is reported as inconclusive: 12.3%. With `Cc1ccc(C(=O)CNc2ccc(C)c(Cl)c2)cc1` the “activity change, negative = inhibition” value was inactive: -0.742%. With `COc1ccc(-c2csc(NC(=O)C3COc4ccccc4O3)n2)cc1OC` (stereo not given) the activity change, negative = inhibition was inconclusive: 8.2%. In the case of `COC(=O)c1cc(OC)c(OC)cc1NC(=O)Cn1nnc(-c2ccccc2Cl)n1`, the “activity change, negative = inhibition” value is reported as inactive: 21%. In the case of `CCOC(=O)N1CCC(N2Cc3cccc(C(=O)N4CCN(c5cccc(C)c5C)CC4)c3C2=O)CC1`, the activity change, negative = inhibition is reported as inconclusive: -19.6%. For `NS(=O)(=O)c1ccc(N/N=C/c2cn(-c3ccccc3)nc2-c2ccccc2)c([N+](=O)[O-])c1`, the activity change, negative = inhibition was inconclusive: 4.17%. For `Cc1cc(-c2cccs2)c2c(n1)sc1c(=O)[nH]c(=O)[nH]c12`, the Potency was inconclusive: 7.31 µM [rising, partial curve, poor fit]. For `O=C(COC(=O)c1ccccc1Br)Nc1nnc(-c2ccccc2)o1`, the Potency was inconclusive: 16.4 µM [falling, single point]. In the case of `CCCOC(=O)c1ccc(-c2ccc(C=O)o2)cc1`, the Potency is reported as inconclusive: 29.1 µM [falling, single point]. With `COc1cc(NC(=O)COC(=O)c2[nH]c(C)c(C(C)=O)c2C)cc(OC)c1` the activity change, negative = inhibition was inconclusive: 1.14%. For `COC(=O)C(C(=O)OC)c1ccc(-n2cccc2)cc1`, the activity change, negative = inhibition was inconclusive: 6.37%. In the case of `CCn1c(=O)c(C(=O)Nc2ccccn2)c(O)c2ccccc21`, the Potency is reported as inconclusive: 0.562 µM [falling, full curve, poor fit].
